Laboratory results from the supplement of paper PMC10849652.
The other results are listed elsewhere or left out.

By UniProt entry, the sequences of proteins in these tests, tags left out. Where a name states a change or a piece, a line headed by the entry shows the natural chain unless it says otherwise.
UniProt P08590, whole entry, looked up: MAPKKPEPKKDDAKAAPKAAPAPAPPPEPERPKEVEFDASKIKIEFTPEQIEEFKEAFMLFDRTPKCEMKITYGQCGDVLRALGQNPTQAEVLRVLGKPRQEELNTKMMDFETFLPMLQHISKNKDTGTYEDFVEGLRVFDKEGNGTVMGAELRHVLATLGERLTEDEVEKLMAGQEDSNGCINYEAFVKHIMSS
UniProt Q8IUG5: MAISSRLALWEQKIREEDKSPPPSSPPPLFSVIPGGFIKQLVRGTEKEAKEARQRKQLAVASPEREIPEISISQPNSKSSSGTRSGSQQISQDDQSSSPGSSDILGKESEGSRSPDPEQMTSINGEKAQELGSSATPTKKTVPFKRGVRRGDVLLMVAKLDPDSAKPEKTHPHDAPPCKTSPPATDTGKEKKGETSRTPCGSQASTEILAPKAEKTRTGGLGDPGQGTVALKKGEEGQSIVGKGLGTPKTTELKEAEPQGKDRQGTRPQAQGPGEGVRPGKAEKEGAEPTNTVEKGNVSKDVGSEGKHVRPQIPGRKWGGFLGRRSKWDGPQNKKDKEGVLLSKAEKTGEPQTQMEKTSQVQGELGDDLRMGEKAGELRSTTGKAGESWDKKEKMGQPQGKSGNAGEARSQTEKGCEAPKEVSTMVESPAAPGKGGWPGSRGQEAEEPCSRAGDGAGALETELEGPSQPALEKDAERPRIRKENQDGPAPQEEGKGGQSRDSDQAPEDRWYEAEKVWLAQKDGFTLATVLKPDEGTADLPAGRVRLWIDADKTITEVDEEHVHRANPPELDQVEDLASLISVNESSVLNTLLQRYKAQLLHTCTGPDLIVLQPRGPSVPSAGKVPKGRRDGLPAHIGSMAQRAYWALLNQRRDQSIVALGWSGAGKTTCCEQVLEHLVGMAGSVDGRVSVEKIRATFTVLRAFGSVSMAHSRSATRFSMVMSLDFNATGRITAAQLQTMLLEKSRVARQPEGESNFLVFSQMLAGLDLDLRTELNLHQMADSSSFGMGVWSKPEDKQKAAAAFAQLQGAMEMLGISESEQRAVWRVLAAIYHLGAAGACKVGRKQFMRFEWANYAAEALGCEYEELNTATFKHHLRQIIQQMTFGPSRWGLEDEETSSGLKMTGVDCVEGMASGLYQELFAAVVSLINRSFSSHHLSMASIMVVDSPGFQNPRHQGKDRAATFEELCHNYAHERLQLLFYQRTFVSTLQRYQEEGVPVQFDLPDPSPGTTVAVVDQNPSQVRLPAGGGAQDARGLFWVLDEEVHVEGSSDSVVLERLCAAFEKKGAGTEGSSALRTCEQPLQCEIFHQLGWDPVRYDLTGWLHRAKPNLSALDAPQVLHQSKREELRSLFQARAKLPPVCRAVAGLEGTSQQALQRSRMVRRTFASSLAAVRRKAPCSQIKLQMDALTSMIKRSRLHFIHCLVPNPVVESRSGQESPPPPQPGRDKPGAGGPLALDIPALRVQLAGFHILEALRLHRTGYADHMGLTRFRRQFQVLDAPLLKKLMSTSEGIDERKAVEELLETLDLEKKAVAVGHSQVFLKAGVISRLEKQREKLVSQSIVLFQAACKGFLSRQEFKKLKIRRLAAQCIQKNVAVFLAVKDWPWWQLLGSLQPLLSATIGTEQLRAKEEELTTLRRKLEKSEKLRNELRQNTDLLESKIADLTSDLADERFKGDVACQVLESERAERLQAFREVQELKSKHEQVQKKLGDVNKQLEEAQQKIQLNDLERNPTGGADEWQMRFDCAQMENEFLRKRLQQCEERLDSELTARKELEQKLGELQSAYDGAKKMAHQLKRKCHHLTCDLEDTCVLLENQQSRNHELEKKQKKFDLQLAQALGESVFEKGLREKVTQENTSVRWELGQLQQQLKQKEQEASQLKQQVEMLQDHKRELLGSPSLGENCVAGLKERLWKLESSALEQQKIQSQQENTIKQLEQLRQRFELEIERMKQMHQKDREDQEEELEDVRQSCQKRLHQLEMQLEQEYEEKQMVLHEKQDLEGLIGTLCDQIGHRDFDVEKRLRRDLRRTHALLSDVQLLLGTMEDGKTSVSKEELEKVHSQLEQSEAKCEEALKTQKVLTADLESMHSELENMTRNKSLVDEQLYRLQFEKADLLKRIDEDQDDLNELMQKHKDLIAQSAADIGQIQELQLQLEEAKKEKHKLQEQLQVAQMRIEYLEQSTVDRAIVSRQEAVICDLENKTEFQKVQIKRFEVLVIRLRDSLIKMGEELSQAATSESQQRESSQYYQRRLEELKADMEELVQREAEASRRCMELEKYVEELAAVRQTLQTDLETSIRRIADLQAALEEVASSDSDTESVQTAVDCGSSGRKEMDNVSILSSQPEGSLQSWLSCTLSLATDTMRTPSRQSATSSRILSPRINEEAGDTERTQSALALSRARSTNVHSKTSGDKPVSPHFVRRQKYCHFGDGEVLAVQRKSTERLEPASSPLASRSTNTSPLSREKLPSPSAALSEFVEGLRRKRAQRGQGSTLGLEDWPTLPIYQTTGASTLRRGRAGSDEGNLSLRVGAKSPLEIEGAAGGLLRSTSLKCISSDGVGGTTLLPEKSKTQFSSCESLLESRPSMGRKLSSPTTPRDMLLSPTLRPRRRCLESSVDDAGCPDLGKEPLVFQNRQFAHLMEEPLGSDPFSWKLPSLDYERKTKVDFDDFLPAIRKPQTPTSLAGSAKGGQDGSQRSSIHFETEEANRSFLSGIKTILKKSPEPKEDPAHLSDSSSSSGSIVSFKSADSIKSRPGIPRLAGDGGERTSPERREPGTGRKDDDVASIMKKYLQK
UniProt Q9H6N6: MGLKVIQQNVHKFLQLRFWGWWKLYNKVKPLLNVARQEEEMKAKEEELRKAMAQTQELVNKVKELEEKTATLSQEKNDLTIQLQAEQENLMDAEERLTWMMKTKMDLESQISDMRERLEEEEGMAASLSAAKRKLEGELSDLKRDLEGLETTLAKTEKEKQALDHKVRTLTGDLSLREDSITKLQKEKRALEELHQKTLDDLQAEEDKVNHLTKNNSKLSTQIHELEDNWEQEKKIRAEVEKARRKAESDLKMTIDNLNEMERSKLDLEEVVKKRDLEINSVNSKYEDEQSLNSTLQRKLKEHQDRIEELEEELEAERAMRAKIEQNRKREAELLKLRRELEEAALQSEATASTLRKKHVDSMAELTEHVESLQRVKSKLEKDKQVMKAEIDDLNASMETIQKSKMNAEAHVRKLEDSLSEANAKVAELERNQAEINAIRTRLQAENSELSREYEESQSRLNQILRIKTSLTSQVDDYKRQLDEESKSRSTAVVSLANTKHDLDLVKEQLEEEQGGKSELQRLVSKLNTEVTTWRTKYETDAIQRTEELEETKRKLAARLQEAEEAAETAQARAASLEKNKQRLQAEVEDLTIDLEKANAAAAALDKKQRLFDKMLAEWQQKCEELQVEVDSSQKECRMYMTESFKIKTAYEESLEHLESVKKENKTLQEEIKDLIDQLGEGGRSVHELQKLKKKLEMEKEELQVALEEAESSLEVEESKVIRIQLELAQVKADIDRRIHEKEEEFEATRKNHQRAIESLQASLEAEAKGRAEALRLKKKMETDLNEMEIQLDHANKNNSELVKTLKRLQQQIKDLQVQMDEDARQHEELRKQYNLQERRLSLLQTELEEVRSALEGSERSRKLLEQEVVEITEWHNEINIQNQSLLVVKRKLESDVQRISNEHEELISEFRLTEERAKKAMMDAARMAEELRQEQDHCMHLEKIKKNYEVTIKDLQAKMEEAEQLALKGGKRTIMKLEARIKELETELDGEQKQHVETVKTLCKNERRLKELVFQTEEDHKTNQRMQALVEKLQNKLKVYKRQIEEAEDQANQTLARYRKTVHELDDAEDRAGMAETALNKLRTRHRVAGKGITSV
UniProt Q9UGC7: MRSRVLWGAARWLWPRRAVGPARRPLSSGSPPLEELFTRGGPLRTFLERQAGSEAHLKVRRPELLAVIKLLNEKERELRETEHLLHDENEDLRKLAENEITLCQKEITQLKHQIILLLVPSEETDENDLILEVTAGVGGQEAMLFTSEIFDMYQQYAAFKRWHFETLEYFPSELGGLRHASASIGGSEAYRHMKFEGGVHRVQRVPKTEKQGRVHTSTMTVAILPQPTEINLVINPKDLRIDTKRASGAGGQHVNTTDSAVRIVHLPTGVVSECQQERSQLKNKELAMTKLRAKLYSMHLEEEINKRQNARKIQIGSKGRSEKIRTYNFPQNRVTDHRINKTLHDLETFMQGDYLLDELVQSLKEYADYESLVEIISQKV
UniProt Q9Y623, whole entry, looked up: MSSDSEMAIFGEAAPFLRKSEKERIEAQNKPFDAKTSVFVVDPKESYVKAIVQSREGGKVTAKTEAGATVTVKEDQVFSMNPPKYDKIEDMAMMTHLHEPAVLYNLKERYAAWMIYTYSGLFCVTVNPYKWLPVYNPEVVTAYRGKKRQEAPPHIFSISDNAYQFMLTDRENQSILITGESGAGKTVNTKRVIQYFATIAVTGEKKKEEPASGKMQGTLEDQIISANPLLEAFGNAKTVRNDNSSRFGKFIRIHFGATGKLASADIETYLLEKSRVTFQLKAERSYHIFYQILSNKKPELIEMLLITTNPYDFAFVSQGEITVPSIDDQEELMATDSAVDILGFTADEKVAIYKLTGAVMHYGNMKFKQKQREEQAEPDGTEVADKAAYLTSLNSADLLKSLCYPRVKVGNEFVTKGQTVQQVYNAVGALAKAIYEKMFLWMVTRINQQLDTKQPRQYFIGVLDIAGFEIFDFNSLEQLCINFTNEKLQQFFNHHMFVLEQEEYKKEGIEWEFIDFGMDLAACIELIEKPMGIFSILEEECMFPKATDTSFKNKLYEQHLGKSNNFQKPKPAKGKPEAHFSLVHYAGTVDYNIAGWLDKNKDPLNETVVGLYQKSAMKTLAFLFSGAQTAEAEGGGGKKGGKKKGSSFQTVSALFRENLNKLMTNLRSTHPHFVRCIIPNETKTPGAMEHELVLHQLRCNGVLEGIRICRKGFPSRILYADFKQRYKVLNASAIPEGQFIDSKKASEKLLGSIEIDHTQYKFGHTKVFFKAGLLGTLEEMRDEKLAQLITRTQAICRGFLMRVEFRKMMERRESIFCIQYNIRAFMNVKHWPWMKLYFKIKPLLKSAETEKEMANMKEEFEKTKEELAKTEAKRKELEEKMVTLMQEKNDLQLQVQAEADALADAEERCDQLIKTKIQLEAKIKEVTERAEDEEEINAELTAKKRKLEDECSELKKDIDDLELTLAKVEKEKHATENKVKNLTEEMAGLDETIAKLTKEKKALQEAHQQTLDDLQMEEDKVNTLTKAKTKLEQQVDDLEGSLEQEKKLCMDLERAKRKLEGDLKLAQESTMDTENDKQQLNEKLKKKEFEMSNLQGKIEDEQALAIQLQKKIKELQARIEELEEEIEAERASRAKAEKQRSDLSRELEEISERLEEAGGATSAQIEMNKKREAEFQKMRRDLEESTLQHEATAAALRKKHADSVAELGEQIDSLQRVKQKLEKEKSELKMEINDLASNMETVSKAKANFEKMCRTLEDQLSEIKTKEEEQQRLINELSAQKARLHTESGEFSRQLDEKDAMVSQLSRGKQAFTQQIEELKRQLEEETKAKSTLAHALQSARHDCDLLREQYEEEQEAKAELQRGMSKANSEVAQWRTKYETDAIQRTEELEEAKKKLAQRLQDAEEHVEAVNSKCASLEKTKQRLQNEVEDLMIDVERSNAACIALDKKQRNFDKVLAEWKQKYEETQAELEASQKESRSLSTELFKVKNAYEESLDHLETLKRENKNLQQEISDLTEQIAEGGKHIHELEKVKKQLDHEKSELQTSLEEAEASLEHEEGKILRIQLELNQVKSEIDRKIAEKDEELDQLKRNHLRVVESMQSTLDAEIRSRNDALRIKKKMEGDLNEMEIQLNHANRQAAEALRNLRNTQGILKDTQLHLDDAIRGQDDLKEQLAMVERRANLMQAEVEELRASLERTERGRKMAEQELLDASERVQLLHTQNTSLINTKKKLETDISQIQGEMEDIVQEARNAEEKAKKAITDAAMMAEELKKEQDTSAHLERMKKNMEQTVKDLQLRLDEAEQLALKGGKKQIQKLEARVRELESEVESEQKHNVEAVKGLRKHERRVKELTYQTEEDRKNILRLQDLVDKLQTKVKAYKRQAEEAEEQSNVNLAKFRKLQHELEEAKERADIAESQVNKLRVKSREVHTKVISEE
UniProt Q96DP5: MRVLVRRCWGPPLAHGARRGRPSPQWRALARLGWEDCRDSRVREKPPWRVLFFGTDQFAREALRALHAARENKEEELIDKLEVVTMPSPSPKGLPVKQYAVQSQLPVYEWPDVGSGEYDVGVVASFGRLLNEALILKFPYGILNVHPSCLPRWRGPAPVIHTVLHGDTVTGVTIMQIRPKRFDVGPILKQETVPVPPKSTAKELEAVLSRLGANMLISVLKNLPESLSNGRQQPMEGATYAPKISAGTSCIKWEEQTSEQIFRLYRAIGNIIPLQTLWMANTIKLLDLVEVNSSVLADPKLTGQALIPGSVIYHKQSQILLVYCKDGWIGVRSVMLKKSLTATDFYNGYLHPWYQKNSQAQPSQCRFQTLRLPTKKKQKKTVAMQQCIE

What was measured:
Assay in all cases: log2 fold change, soluble protein after heating vs DMSO (PISA); higher = thermal stabilisation; K562 cells, 10 uM, 30 min; active = over 0.2 and 3.5 SD of the protein, either way, in both replicates (recomputed)
[1] = compound: CN1CCN(CCOc2cc(OC3CCOCC3)c3c(Nc4c(Cl)ccc5c4OCO5)ncnc3c2)CC1 [saracatinib]
How it was run: (§1)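 K562 cells (2×10^6 cells/mL) were treated with 10 μM compound for 30 min, and aliquots were heated for 3 min over 48°C-58°C. Pooled aliquots were extracted in PBS with 0.5% NP-40 at 4°C, and the supernatant after 21,000xg for 90 min was measured by TMTpro 16plex LC-MS/MS with channel sums equalised. Reported thermal stability, relative to control samples and from duplicates, is a log2 fold change.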

[2] = compound: CN1CC[C@H](c2c(O)cc(O)c3c(=O)cc(-c4ccccc4Cl)oc23)[C@H](O)C1 [alvocidib]
How it was run: as §1

[3] = compound: CN1CCc2c(c3ccccc3n2Cc2ccc(C(=O)NO)cc2)C1 [Tubastatin A]
How it was run: as §1

[4] = compound: CNC(=O)C1=CC=CC=C1NC2=NC(=NC=C2Cl)NC3=C(C=C(C=C3)N4CCOCC4)OC
How it was run: as §1

[5] = compound: CNC(=O)c1ccc(Nc2ncc(C(F)(F)F)c(NCc3nccnc3N(C)S(C)(=O)=O)n2)cc1 [defactinib]
How it was run: as §1

[6] = compound: CNCc1ccc(-c2[nH]c3cc(F)cc4c3c2CCNC4=O)cc1 [rucaparib]
How it was run: as §1

[7] = compound: CNc1nc(-c2ccc3c(N)n[nH]c3c2)cc(N2C[C@@H](C(=O)NC3CCCCC3)CC[C@H]2C)n1
How it was run: as §1

[8] = compound: COC(=O)N[C@@H](C)CNc1nccc(-c2cn(C(C)C)nc2-c2cc(Cl)cc(NS(C)(=O)=O)c2F)n1 [encorafenib]
How it was run: as §1

[9] = compound: COC(=O)[C@H](CCSC)NC(=O)C1=C(C=C(C=C1)NC[C@H](CS)N)C2=CC=CC=C2
How it was run: as §1

[10] = compound: COC1=CC=C(C=C1)CN2C=CC3=C2C=C(C=C3)C(=O)NO
How it was run: as §1

[11] = compound: CO[C@H]1C[C@@H]2CC[C@@H](C)[C@@](O)(O2)C(=O)C(=O)N2CCCC[C@H]2C(=O)O[C@H]([C@H](C)C[C@@H]2CC[C@H](n3cnnn3)[C@H](OC)C2)CC(=O)[C@H](C)/C=C(\C)[C@@H](O)[C@@H](OC)C(=O)[C@H](C)C[C@H](C)/C=C/C=C/C=C/1C [zotarolimus]
How it was run: as §1

[12] = compound: COc1cc(C(=O)O)ccc1NC(=O)[C@@H]1N[C@@H](CC(C)(C)C)[C@](C#N)(c2ccc(Cl)cc2F)[C@H]1c1cccc(Cl)c1F [idasanutlin]
How it was run: as §1

[13] = compound: COc1cc(Nc2ncc3c(n2)-c2ccc(Cl)cc2C(c2c(F)cccc2OC)=NC3)ccc1C(=O)O [alisertib]
How it was run: as §1

[14] = compound: COc1cc2nc(-c3cc(F)ccc3O)nc(N[C@@H]3CNC[C@H]3C(C)(C)O)c2cc1OC
How it was run: as §1

[15] = compound: COc1cc2ncnc(Nc3ccc(F)c(Cl)c3)c2cc1OCCCN1CCOCC1 [gefitinib]
How it was run: as §1

[16] = compound: COc1cccc2cc(-c3nc([C@H]4CC[C@H](C(=O)O)CC4)n4ncnc(N)c34)[nH]c12
How it was run: as §1

[17] = compound: CS(=O)(=O)CCNCc1ccc(-c2ccc3ncnc(Nc4ccc(OCc5cccc(F)c5)c(Cl)c4)c3c2)o1 [lapatinib]
How it was run: as §1

[18] = compound: CS(=O)(=O)N1CCN(Cc2cc3nc(-c4cccc5[nH]ncc45)nc(N4CCOCC4)c3s2)CC1 [pictilisib]
How it was run: as §1

[19] = compound: CN1CCN(c2nc(C3=C(c4c[nH]c5ccccc45)C(=O)NC3=O)c3ccccc3n2)CC1 [sotrastaurin]
How it was run: as §1

[20] = compound: CON(C)C(=O)N1N=C(c2cc(F)ccc2F)S[C@@]1(CCCN)c1ccccc1 [filanesib]
How it was run: as §1

Measured: log2 fold change

MTMR9 (UniProt Q96QG7)
inactive: [1] 0.065 | [2] -0.071 | [3] 0.044 | [4] 0.038 | [5] -0.04 | [6] -0.018 | [7] 0.025 | [8] 0.049 | [9] -0.008 | [10] 0.007 | [11] 0.071 | [12] -0.122 | [13] 0.031 | [14] 0.07 | [15] -0.026 | [16] 0.02 | [17] 0.001 | [18] 0.086

MYL3 (UniProt P08590)
inactive: [1] -0.011 | [2] -0.107 | [4] 0.07 | [6] 0.132 | [7] 0.035 | [8] 0.114 | [10] -0.272 | [11] 0.037 | [13] -0.037 | [14] -0.16 | [15] 0.035 | [16] -0.08 | [17] 0.087 | [18] 0.002

MYO18B isoform 3 (UniProt Q8IUG5)
inactive: [19] -0.053 | [3] 0.103 | [4] -0.024 | [6] 0.262 | [8] -0.023 | [20] 0.326 | [12] 0.11 | [15] 0.026

MTHFD1L (UniProt B7ZM99)
inactive: [1] -0.009 | [2] -0.092 | [4] 0.013 | [5] -0.001 | [6] -0.104 | [7] 0.06 | [8] -0.118 | [9] 0.002 | [11] -0.069 | [12] -0.226 | [13] -0.009 | [14] 0.127 | [15] -0.018 | [16] 0.099 | [17] -0.062 | [18] 0.093

MYH16 (UniProt Q9H6N6)
inactive: [19] -0.224 | [3] -0.069 | [4] -0.075 | [5] 0.013 | [9] -0.171 | [20] -0.263 | [11] -0.118 | [12] -0.066 | [13] 0.163 | [14] -0.052 | [15] -0.03 | [16] -0.031 | [17] 0.204 | [18] -0.448
active: [10] 0.886

MTRF1L (UniProt Q9UGC7)
inactive: [1] 0.072 | [2] -0.151 | [3] -0.046 | [4] 0.037 | [5] -0.006 | [6] 0.053 | [7] -0.004 | [8] -0.102 | [9] -0.052 | [11] 0.01 | [12] -0.024 | [13] 0.117 | [14] 0.007 | [15] 0.017 | [16] 0.014 | [17] 0.039 | [18] -0.037

MYH3 (UniProt P11055)
inactive: [2] 0.021 | [3] -0.001 | [4] 0.079 | [6] 0.234 | [8] -0.25 | [11] -0.07 | [15] 1.58 | [18] 0.052

MYH6 (UniProt P13533)
inactive: [1] 0.003 | [2] 0.028 | [4] -0.138 | [7] -0.012 | [11] -0.268 | [13] -0.153 | [14] 0.19 | [15] 0.089 | [16] -0.015 | [17] -0.051 | [18] 0.113

MTMR4 (UniProt Q9NYA4)
inactive: [19] 0.022 | [4] -0.05 | [10] -0.015 | [20] 0.02

MTURN (UniProt Q8N3F0)
inactive: [3] -0.272 | [5] 0.134 | [9] 0.06 | [10] -0.007 | [13] -0.013 | [14] -0.001 | [16] 0.097 | [17] -0.019

MTAP isoform 2 (UniProt Q13126)
inactive: [1] 0.108 | [19] 0.097 | [7] 0.007 | [10] 0.067 | [20] -0.1 | [18] 0.015

MYH4 (UniProt Q9Y623)
inactive: [6] 0.689 | [8] -1.27

MTRES1 (UniProt Q9P0P8)
inactive: [3] -0.018 | [4] -0.037 | [6] 0.052 | [8] -0.171 | [12] 0.117 | [13] 0.081 | [14] 0.066 | [16] 0.149 | [17] -0.041

MVP (UniProt Q14764)
inactive: [6] 1.25 | [8] -0.698

MYH2 (UniProt Q9UKX2)
inactive: [1] 0.078 | [6] 0.597 | [7] 0.063 | [8] -1.33 | [13] -0.148 | [16] 0.101

MTFMT (UniProt Q96DP5)
inactive: [19] 0.187 | [3] -0.062 | [5] -0.122 | [6] -0.007 | [8] 0 | [9] -0.179 | [20] -0.264 | [14] -0.128 | [17] 0.057

Two records picked at random from the list so far, as already listed:
MYO18B isoform 3 (UniProt Q8IUG5)
inactive: [19] -0.053 | [3] 0.103 | [4] -0.024 | [6] 0.262 | [8] -0.023 | [20] 0.326 | [12] 0.11 | [15] 0.026

MYH3 (UniProt P11055)
inactive: [2] 0.021 | [3] -0.001 | [4] 0.079 | [6] 0.234 | [8] -0.25 | [11] -0.07 | [15] 1.58 | [18] 0.052

Additional entries:

MT-ND2 (UniProt P03891)
inactive: [1] -0.183 | [3] -0.044 | [4] 0 | [5] -0.008 | [7] -0.295 | [9] 0.085 | [10] -0.029 | [11] 0.065 | [12] -0.143 | [13] 0.04 | [14] -0.131 | [15] 0.106 | [16] 0.074 | [17] -0.008 | [18] 0.139

MYH15 (UniProt Q9Y2K3)
inactive: [19] -0.26 | [6] -0.063 | [8] -0.02 | [20] -0.265 | [13] 0.028 | [15] -0.162 | [16] 0.053
